Data taken from PubChem BioAssay AID1347426 (Functional Genomics Laboratory (NCATS/FGL), 2020).
About 1,400 (4.5%) of roughly 31,000 sequences were called active.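 How the source made its calls: active means median seed-adjusted z-score above 1 or below -1; inactive means the rest.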 Some of the results follow.

Experiment: Novel Modifiers of Survival Motor Neuron (SMN) Protein: Gene Identification via Genome-wide siRNA Screen;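 further: luminescence tracks full-length SMN protein made from the SMN2 reporter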
Details: HEK293T SMN2-luciferase reporter, siRNA knockdown, 72 h; actives lie on both sides
Outline: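 Luciferase signal, proportional to full-length SMN made from an SMN2 cDNA reporter in stable HEK293T cells, was read 72 h after siRNA reverse transfection. Values were expressed as MAD scores after non-targeting-control normalization and log10 conversion; seed analysis flagged off-targets.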

| Sequence | median seed-adjusted z-score |
| --- | --- |
| GAUAAUUACUAUCACCUAUTT against PCDHGA5 | inactive: 0.163 |
| UGGAAAUACUUAUCCCAAUTT against SPINK1 | inactive: 0.292 |
| GGUGUAUGAUGGAUACUGATT against COPG2 | inactive: -0.564 |
| CAGUUGCGUUAAUUCGAAATT against HECTD1 | inactive: -0.0588 |
| CAGCGUGUAUUAGAGAGUATT against GPD2 | inactive: 0.0606 |
| CGACAUUACUAAUCAGGAATT against RAB5B | inactive: 0.299 |
| CAGUAGUGCCUGUCGGGAATT against LEPROT | inactive: -0.17 |
| GCAAGUCGUCUAUUCAGAATT against RRAGD | inactive: 0.313 |
| AAGUUCCUAUCGGUCGUAUTT against HBZ | inactive: -0.0054 |
| CAGCUAUUUCUGAUAGAUATT against MTMR12 | inactive: 0.419 |
| GGACUUACACUCUUAGGAATT against MAOB | inactive: 0 |
| UCCGGGCUGUGAAAAGUUATT against GALNS | inactive: 0.0287 |
| GAGUUUAGCUGUAAGGACATT against ACOX2 | inactive: -0.545 |
| GGAAGACCAGUGUACUUUATT against RAB27A | inactive: -0.134 |
| CAGACAGUAUGUUCGAAGATT against PPAT | active: -1.51 |
| CUCAGGACAUUGCUUCUUATT against TMEM1 | inactive: -0.191 |
| CCAACAGACAUAAACACGATT against TCF12 | inactive: -0.16 |
| GAAGCAUCCUGAUGACGAATT against CRTAP | inactive: 0.581 |
| GGUGAUACUAUCAACCAAATT against YAP1 | inactive: -0.247 |
| CCCUCUAUCCAGUAUCUAATT against RFXDC2 | inactive: 0.724 |
| GUCUACAUCUUUGCACUUUTT against GPR97 | inactive: -0.0155 |
| GCUUACAUAGCAAAUCUAATT against ST8SIA2 | inactive: 0.516 |
| CCCUAUGUAUGAAGGAUAUTT against USP1 | inactive: -0.564 |
| GGACAUUGAUGUGAUCCUATT against ALPPL2 | inactive: 0.331 |
| CCCUGGAUGUCCUAUCUGATT against SLC2A1 | inactive: -0.349 |
| UGGUGAUGCUGACAGCUGATT against RCC1 | inactive: -0.165 |
| GUGUCUCCAUAGUACGAGATT against ELP3 | inactive: 0.321 |

| Sequence | median seed-adjusted z-score |
| --- | --- |
| CGAUUACCUUUGGAUAAGATT against TNPO3 | inactive: 0.577 |
| GCUGAACUCAUUUACAAGATT against B3GALT1 | inactive: -0.0555 |
| AGAUGUUACAUAAAACGAUTT against PTPN20B | inactive: -0.62 |
| CAGCAUUUAUCAAGUCUUATT against BMP6 | inactive: 0.301 |
| GCAAGAGUCGUUCACCAGATT against MGMT | inactive: -0.0549 |
| GGAAAUACCUAGGCCGGUATT against GYS1 | inactive: 0.874 |
| CUGGACAACUGAAACAAUUTT against GSTM3 | inactive: -0.66 |
| GGAUUGAUAAAGAGGUAAATT against ASH1L | inactive: -0.197 |
| CCAAGCAAAAUGUAGAUUATT against MGAT4C | inactive: 0.187 |
| UGUUAAGCUUUACCAUUAATT against ATP5G1 | inactive: -0.311 |
| GCAGCUUCAAGAUCAAUGATT against ANTXR1 | inactive: -0.0849 |
| GCUUGUAACUUGACGAGCUTT against DOCK7 | inactive: 0.23 |
| GAUUCUUUUGAAAAAGUGATT against ZNF675 | inactive: -0.343 |
| AGGAGGUUACGGCACAAAATT against STK11 | inactive: 0.348 |
| GUAUAUCACCAGUUUCACATT against KCNJ13 | inactive: 0.327 |
| GCAAGGAUGGUGUUCCAUATT against ABLIM3 | inactive: -0.29 |
| GCACCAACGUGUCACUGCUTT against TSKS | inactive: -0.0409 |
| CCAUCUACCAGCUAAUCAATT against PIK3C2G | inactive: 0.0251 |
| CAUUCAGACUGGGUAAACATT against IL10RB | inactive: 0.167 |
| GGAGGAUUUCUACCCUAAUTT against CYP2U1 | inactive: 0.144 |
| CAGUGUAAGUUGGACGAAATT against MS4A6E | inactive: -0.341 |
| UGAGUAUUUUUACUCCCAUTT against PBX4 | inactive: -0.855 |
| CGAUCUGUCUCGAUACAAUTT against PPP2R3A | inactive: 0.175 |
| GAAAGUUCCCAAUCACUAUTT against CPXM2 | inactive: 0 |
| GCUCUUCUAGACAUCGAUATT against NUBP1 | inactive: -0.0975 |
| GAAGGAAACAUGACGAUGATT against ZXDC | inactive: -0.0213 |

A different layout for some results above:
Sequence	median seed-adjusted z-score
CAGCAUUUAUCAAGUCUUATT against BMP6	inactive: 0.301
GCAAGAGUCGUUCACCAGATT against MGMT	inactive: -0.0549
GGAAAUACCUAGGCCGGUATT against GYS1	inactive: 0.874
CUGGACAACUGAAACAAUUTT against GSTM3	inactive: -0.66
